# This is one part of the list.
# Protein sequences, listed by entry. Tags and fused reporters are not part of them. Lines headed by an entry give the natural chain unless they say otherwise; changes in a name come on top.
# UniProt Q9Y5W7: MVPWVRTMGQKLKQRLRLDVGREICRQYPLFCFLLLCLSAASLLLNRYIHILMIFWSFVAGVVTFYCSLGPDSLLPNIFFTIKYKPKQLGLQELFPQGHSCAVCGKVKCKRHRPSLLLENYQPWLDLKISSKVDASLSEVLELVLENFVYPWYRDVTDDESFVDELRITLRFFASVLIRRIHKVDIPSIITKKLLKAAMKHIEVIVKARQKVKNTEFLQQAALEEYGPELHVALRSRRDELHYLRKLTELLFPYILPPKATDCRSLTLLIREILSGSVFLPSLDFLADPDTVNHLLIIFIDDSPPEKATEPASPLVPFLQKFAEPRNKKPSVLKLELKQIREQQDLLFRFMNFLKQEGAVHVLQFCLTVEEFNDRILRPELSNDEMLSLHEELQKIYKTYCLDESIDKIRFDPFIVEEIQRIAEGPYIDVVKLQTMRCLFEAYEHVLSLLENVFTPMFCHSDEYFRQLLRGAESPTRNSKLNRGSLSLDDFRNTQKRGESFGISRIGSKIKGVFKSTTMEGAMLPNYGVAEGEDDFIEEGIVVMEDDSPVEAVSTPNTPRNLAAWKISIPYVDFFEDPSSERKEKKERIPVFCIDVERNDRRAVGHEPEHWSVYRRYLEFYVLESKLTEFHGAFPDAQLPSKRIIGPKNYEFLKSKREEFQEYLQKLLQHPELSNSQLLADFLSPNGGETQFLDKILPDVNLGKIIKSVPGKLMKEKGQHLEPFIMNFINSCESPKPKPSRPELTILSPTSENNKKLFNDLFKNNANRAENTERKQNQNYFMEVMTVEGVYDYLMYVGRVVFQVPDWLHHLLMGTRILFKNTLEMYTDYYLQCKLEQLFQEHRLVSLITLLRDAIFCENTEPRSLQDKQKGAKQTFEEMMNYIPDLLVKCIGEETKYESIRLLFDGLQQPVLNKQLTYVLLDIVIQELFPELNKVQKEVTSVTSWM
# UniProt Q07617: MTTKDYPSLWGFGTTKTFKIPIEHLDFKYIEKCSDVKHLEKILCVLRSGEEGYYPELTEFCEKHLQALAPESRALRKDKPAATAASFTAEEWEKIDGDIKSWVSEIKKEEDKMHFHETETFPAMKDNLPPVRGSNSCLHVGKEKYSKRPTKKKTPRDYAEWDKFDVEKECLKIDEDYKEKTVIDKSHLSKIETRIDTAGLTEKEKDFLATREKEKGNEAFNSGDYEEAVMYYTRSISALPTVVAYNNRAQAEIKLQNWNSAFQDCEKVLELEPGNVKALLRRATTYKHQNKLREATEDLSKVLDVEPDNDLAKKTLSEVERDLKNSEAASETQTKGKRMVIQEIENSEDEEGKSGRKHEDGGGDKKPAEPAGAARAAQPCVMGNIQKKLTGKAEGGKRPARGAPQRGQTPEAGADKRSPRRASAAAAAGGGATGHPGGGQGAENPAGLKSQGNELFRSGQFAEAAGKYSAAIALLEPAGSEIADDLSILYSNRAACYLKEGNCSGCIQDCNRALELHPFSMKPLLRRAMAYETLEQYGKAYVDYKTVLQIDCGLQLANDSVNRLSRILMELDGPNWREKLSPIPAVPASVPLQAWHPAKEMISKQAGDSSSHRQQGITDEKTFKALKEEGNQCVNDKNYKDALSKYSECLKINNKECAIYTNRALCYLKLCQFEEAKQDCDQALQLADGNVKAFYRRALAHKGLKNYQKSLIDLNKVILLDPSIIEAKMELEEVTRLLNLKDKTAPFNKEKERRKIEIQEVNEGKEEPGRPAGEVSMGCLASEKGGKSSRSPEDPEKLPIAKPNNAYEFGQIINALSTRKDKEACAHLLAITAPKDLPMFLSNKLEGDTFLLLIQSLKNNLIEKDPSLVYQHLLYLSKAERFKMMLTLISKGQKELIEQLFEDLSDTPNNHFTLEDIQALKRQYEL
# UniProt Q8N5C6: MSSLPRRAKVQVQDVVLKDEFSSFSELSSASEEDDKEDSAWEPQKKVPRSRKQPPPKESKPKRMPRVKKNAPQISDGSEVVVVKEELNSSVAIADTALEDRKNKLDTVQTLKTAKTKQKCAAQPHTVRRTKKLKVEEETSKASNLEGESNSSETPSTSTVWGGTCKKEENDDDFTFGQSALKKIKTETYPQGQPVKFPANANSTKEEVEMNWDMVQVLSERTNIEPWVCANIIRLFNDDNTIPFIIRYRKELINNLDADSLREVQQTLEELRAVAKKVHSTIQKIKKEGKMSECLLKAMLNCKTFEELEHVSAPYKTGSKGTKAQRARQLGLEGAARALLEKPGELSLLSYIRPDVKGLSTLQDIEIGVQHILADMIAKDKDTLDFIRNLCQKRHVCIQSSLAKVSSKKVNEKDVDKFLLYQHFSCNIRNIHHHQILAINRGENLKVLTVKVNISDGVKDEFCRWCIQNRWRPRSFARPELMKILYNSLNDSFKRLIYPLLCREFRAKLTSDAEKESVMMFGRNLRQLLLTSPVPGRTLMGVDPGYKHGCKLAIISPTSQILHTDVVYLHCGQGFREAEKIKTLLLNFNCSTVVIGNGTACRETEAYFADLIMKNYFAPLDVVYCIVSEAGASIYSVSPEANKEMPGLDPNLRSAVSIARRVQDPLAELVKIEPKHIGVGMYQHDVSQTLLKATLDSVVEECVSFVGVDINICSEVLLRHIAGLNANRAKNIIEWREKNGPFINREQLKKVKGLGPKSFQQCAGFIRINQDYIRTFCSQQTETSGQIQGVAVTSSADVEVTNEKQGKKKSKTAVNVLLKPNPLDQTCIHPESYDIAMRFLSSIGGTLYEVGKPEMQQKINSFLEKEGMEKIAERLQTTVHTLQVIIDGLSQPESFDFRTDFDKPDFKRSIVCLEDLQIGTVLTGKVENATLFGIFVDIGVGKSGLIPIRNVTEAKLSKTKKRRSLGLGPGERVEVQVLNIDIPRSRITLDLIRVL
# UniProt Q9UQ90: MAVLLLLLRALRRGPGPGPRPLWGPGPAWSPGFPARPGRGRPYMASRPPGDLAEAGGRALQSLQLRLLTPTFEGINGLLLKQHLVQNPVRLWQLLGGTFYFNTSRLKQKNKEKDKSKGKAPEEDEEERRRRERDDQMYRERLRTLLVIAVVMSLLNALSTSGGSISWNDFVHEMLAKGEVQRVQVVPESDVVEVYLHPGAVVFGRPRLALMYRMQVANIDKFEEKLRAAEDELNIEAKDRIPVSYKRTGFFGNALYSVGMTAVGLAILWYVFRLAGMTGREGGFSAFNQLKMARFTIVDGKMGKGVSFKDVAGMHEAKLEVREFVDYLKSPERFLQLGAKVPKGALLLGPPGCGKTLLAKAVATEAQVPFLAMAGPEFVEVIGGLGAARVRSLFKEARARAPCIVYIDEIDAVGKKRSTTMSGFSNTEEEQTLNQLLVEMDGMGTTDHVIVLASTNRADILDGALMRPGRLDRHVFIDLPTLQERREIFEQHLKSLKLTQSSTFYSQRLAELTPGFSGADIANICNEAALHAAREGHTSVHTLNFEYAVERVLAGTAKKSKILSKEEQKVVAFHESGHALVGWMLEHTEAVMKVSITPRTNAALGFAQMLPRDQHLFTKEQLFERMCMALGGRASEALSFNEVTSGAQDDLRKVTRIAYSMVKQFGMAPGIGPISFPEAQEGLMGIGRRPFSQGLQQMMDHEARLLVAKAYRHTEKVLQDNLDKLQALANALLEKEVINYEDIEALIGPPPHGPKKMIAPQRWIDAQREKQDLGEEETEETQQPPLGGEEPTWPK
# UniProt Q9Y6N5: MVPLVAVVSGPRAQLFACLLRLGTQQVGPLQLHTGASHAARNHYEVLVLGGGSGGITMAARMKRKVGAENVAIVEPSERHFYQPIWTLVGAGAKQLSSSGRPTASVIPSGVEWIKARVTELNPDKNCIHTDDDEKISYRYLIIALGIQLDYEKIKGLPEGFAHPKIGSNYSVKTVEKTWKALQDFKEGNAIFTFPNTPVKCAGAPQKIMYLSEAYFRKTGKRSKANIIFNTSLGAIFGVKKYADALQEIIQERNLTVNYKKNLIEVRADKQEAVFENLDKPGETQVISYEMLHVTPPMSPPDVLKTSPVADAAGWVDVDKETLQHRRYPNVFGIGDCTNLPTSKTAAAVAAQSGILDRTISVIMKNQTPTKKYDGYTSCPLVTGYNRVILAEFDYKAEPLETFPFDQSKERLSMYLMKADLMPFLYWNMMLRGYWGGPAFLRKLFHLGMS
# UniProt P09132: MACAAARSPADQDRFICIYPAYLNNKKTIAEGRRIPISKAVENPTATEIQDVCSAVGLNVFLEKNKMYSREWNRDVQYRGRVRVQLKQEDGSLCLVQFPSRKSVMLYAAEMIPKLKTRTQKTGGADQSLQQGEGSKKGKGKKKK
# UniProt Q9UHB9: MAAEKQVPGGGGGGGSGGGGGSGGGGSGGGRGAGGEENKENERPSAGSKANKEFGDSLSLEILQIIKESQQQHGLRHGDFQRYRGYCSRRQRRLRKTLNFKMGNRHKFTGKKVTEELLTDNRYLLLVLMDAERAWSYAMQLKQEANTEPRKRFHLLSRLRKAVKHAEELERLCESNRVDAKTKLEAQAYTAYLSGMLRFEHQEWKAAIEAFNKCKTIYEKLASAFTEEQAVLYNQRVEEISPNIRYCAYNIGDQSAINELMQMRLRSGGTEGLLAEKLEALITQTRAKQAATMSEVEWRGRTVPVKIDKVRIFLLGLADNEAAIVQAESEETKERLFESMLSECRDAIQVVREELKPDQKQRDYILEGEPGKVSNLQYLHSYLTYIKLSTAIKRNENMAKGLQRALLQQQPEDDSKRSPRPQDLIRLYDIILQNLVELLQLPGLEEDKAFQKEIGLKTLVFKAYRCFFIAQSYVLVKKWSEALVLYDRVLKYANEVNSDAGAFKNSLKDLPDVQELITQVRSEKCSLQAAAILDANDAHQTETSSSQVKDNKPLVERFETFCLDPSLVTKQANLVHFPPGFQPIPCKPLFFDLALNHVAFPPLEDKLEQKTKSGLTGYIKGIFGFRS
# UniProt Q00796: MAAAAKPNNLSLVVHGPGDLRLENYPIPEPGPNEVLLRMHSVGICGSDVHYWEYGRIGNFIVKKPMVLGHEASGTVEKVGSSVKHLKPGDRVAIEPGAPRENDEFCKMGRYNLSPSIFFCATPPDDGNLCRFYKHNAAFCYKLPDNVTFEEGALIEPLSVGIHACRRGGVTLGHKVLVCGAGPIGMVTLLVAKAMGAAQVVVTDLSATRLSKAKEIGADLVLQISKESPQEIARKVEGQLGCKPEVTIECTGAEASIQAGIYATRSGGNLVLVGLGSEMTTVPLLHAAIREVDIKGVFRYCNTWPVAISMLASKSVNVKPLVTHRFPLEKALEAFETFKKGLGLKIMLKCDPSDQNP
# Compound: Cc1cc(ccc1-c1ccccc1)C(=O)N1CCCN(CC1)C(=O)CCl [compound 10]
# Test: probe-labelled cysteine peptide fold change vs DMSO (competition) (log2 fold change); higher = less target engagement (more negative = stronger competition)
# Conditions: THP-1, incubation time: 4 h
# 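Further: competitive profiling in live THP-1 cells: cysteine peptides tagged with an iodoacetamide desthiobiotin (IA-DTB) probe, intensity after compound treatment relative to DMSO-treated cells.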
Target,probe-labelled cysteine peptide fold change (10 µM),probe-labelled cysteine peptide fold change (50 µM)
SON_P18583-2_2133_DLMANATCFR (UniProt P18583),5.1e-05,-0.396
SNX27_Q96L92_513_IFTPYFNYMHECFER (UniProt Q96L92),0.116,0.4
SRCAP_Q6ZRS2_1993_FIFVMPPVEAPPPSLHACHPPPWLAPR (UniProt Q6ZRS2),0.0413,0.0126
SPTAN1_Q13813_1930_DRVNDVCTNGQDLIK (UniProt Q13813),0.044,0.368
SNX14_Q9Y5W7_857_DAIFCENTEPR (UniProt Q9Y5W7),-0.187,-0.196
SPAG1_Q07617_825_EACAHLLAITAPK (UniProt Q07617),-0.0854,-0.173
SRBD1_Q8N5C6_120_CAAQPHTVR (UniProt Q8N5C6),-0.0573,-0.126
SPG7_Q9UQ90_353_GALLLGPPGCGK (UniProt Q9UQ90),0.0637,-0.0291
SQOR_Q9Y6N5_337_YPNVFGIGDCTNLPTSK (UniProt Q9Y6N5),-0.195,0.186
SPTAN1_Q13813_1454_MMLDQCLELQLFHRDCEQAENWMAAR (UniProt Q13813),0.453,-0.135
SNX27_Q96L92_519_VFCELK (UniProt Q96L92),-0.256,-0.213
SRP19_P09132_3_ACAAAR (UniProt P09132),-0.0368,0.0842
SRP68_Q9UHB9_525_CSLQAAAILDANDAHQTETSSSQVK (UniProt Q9UHB9),-0.0993,-0.302
SORD_Q00796_140_HNAAFCYK (UniProt Q00796),0.133,0.0192

# Taken from above:
# probe-labelled cysteine peptide fold change (50 µM) with SPTAN1_Q13813_1930_DRVNDVCTNGQDLIK (UniProt Q13813) is entered as 0.368
# probe-labelled cysteine peptide fold change (50 µM) with SRBD1_Q8N5C6_120_CAAQPHTVR (UniProt Q8N5C6) is entered as -0.126

# Source: the supplement of paper PMC12067093, “Discovery and optimisation of a covalent ligand for TRIM25 and its application to targeted protein ubiquitination” (Chemical Science, 2025)
